# Reference: paper PMC3406103
# B1: HPV8 E7 protein, in vitro translated and 35S-labelled (protein, UniProt P06430 1-103)
# chain: MIGKEVTVQDFVLKLSEIQPEVLPVDLLCEEELPNEQETEEELDIERTVFKIVAPCGCSCCQVKLRLFVNATDSGIRTFQELLFRDLQLLCPECRGNCKHGGS
# modifications: 35S-methionine-labelled
# Biological target: GST-p300 histone acetyltransferase
# Assay: pull-down; GST fusion proteins incubated with in vitro translated 35S-labelled HPV8 E7 and precipitated by glutathione Sepharose 4B; SDS-PAGE and autoradiography; only the target purified
binder,measurement,value
B1,binding,no binding

# No constants are given. Whether binding was seen depends on the method and setting. In cells and extracts the contact can be indirect.
